Results are given in words; binding and its absence hold for the method and conditions named. Binding seen in cells or lysates may run through a third protein. A yes stands for co-enrichment or nearness to the bait. Other partners may have been found.
Target: GFP/PfAtg18 (Plasmodium falciparum) (UniProt Q8IJR6)
Assay: affinity purification with mass spectrometry

B1: P. falciparum multi-drug resistance protein 1 (protein, UniProt Q7K6A5 1-1419)
chain: MGKEQKEKKDGNLSIKEEVEKELNKKSTAELFRKIKNEKISFFLPFKCLPAQHRKLLFISFVCAVLSGGTLPFFISVFGVILKNMNLGDDINPIILSLVSIGLVQFILSMISSYCMDVITSKILKTLKLEYLRSVFYQDGQFHDNNPGSKLRSDLDFYLEQVSSGIGTKFITIFTYASSFLGLYIWSLIKNARLTLCITCVFPLIYVCGVICNKKVKLNKKTSLLYNNNTMSIIEEALMGIRTVASYCGEKTILNKFNLSETFYSKYILKANFVEALHIGLINGLILVSYAFGFWYGTRIIINSATNQYPNNDFNGASVISILLGVLISMFMLTIILPNITEYMKALEATNSLYEIINRKPLVENNDDGETLPNIKKIEFKNVRFHYDTRKDVEIYKDLSFTLKEGKTYAFVGESGCGKSTILKLIERLYDPTEGDIIVNDSHNLKDINLKWWRSKIGVVSQDPLLFSNSIKNNIKYSLYSLKDLEAMENYYEENTNDTYENKNFSLISNSMTSNELLEMKKEYQTIKDSDVVDVSKKVLIHDFVSSLPDKYDTLVGSNASKLSGGQKQRISIARAIMRNPKILILDEATSSLDNKSEYLVQKTINNLKGNENRITIIIAHRLSTIRYANTIFVLSNRERSDNNNNNNNDDNNNNNNNNNNKINNEGSYIIEQGTHDSLMKNKNGIYHLMINNQKISSNKSSNNGNDNGSDNKSSAYKDSDTGNDADNMNSLSIHENENISNNRNCKNTAENEKEEKVPFFKRMFRRKKKAPNNLRIIYKEIFSYKKDVTIIFFSILVAGGLYPVFALLYARYVSTLFDFANLEYNSNKYSIYILLIAIAMFISETLKNYYNNKIGEKVEKTMKRRLFENILYQEMSFFDQDKNTPGVLSAHINRDVHLLKTGLVNNIVIFSHFIMLFLVSMVMSFYFCPIVAAVLTFIYFINMRVFAVRARLTKSKEIEKKENMSSGVFAFSSDDEMFKDPSFLIQEAFYNMHTVINYGLEDYFCNLIEKAIDYKNKGQKRRIIVNAALWGFSQSAQLFINSFAYWFGSFLIKRGTILVDDFMKSLFTFIFTGSYAGKLMSLKGDSENAKLSFEKYYPLMIRKSNIDVRDDGGIRINKNLIKGKVDIKDVNFRYISRPNVPIYKNLSFTCDSKKTTAIVGETGSGKSTFMNLLLRFYDLKNDHIILKNDMTNFQDYQNNNNNSLVLKNVNEFSNQSGSAEDYTVFNNNGEILLDDINICDYNLRDLRNLFSIVSQEPMLFNMSIYENIKFGREDATLEDVKRVSKFAAIDEFIESLPNKYDTNVGPYGKSLSGGQKQRIAIARALLREPKILLLDEATSSLDSNSEKLIEKTIVDIKDKADKTIITIAHRIASIKRSDKIVVFNNPDRNGTFVQSHGTHDELLSAQDGIYKKYVKLAK
binding: binds

From article doi:10.1101/2020.10.02.323600
